Record: PubChem BioAssay AID1259405 (NCATS, 2018)

- Aim: 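Knock-downs that lift recombinant protein yield in hamster ovary cells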 (primary screen)
- System: Chinese hamster CHO-K1 ovary cells with stable secreted eGFP expression
- Reagents: single siRNA against mouse genes, 0.8 pmol siRNA per well (2 µl of 400 nM stock)
- Duration: 3 days
- Read-out: 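Percent of the per-plate non-targeting control median for intracellular GFP per well by laser scanning cytometry and for cell viability by ATP luminescence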
- Scale: GFP, % of control: higher = more GFP per well, higher productivity; viability (ATP), % of control: higher = more viable cells (more ATP)
- Rule for the call: 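Called active when intracellular GFP, relative to negative control, is at or above 120%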
This is a random part of about 50,000 reagents tested. Of all reagents, about 4,000 (8%) got an active call. 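Mouse siRNA library applied to hamster cells; one well for each siRNA.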 Reagent sequences are not shown.

no.	gene symbol	PubChem SID	GFP, % of control	viability (ATP), % of control	Outcome
1	Mcpt8	SID363547441	88.8	70.6	inactive
2	Mcpt8	SID363558210	44	46.7	inactive
3	Mcpt8	SID363559968	85.5	98.5	inactive
4	Ypel5	SID363556785	64.9	68.3	inactive
5	Ypel5	SID363563689	62.2	64	inactive
6	Ypel5	SID363587235	86.1	116	inactive
7	Lin52	SID363552352	81.7	76.2	inactive
8	Lin52	SID363585488	79.8	96.1	inactive
9	Lin52	SID363585839	79.7	139	inactive
10	Vps18	SID363582556	102	120	inactive
11	Vps18	SID363584316	124	107	active
12	Edn1	SID363541455	48.7	73.1	inactive
13	Edn1	SID363556082	61	68.4	inactive
14	Edn1	SID363566371	42	69.3	inactive
15	Zfp579	SID363573192	102	54.5	inactive
16	Zfp579	SID363588431	87.7	86.2	inactive
17	Hyal3	SID363569890	131	84.3	active
18	Hyal3	SID363576930	121	143	active
19	Hyal3	SID363578338	96.7	140	inactive
20	Usp17ld	SID363547354	118	121	inactive
21	Usp17ld	SID363558123	78.5	44.4	inactive
22	Usp17ld	SID363559881	103	81.4	inactive
23	4930429B21Rik	SID363542374	127	77.2	active
24	4930429B21Rik	SID363551865	82	64.9	inactive
25	4930429B21Rik	SID363559470	88.5	85.1	inactive
26	Phf6	SID363545812	86.5	105	inactive
27	Phf6	SID363549325	92.4	57.8	inactive
28	Phf6	SID363563131	113	95	inactive
29	Sde2	SID363547141	56.8	46.1	inactive
30	Sde2	SID363549953	72.2	85.2	inactive
31	Sde2	SID363588007	87.9	83.4	inactive
32	Dtx1	SID363584460	89.7	86.5	inactive
33	Dtx1	SID363589490	134	115	active
34	Or10d4c	SID363545068	88	47.5	inactive
35	Or10d4c	SID363551396	38.9	58.1	inactive
36	Or10d4c	SID363557945	69.7	88.8	inactive
37	Rplp2	SID363554042	52.6	41.9	inactive
38	Rplp2	SID363561999	71.7	74.9	inactive
39	Rplp2	SID363565737	35	29.9	inactive
40	Mettl21e	SID363542445	57	81.2	inactive
41	Mettl21e	SID363551936	67	55.7	inactive
42	Mettl21e	SID363559541	56.1	53.6	inactive
43	Ssx2ip	SID363556288	51	53.6	inactive
44	Ssx2ip	SID363586738	88.1	100	inactive
45	Ssx2ip	SID363588846	104	80.5	inactive

14 entries already listed, ordered by “GFP, % of control”, lowest first:
gene symbol	PubChem SID	GFP, % of control	viability (ATP), % of control	Outcome
Sde2	SID363547141	56.8	46.1	inactive
Sde2	SID363549953	72.2	85.2	inactive
Usp17ld	SID363558123	78.5	44.4	inactive
4930429B21Rik	SID363551865	82	64.9	inactive
Phf6	SID363545812	86.5	105	inactive
4930429B21Rik	SID363559470	88.5	85.1	inactive
Phf6	SID363549325	92.4	57.8	inactive
Hyal3	SID363578338	96.7	140	inactive
Usp17ld	SID363559881	103	81.4	inactive
Phf6	SID363563131	113	95	inactive
Usp17ld	SID363547354	118	121	inactive
Hyal3	SID363576930	121	143	active
4930429B21Rik	SID363542374	127	77.2	active
Hyal3	SID363569890	131	84.3	active

The results go on:
no.	gene symbol	PubChem SID	GFP, % of control	viability (ATP), % of control	Outcome
46	Foxh1	SID363573496	104	74.2	inactive
47	Foxh1	SID363588735	66.1	63.9	inactive
48	Apol10b	SID363552218	104	99.7	inactive
49	Apol10b	SID363585354	79.3	92.2	inactive
50	Apol10b	SID363585705	64	72.5	inactive
51	Myf6	SID363573719	131	100	active
52	Myf6	SID363581463	44.5	43.5	inactive
53	Myf6	SID363583927	47.3	115	inactive
54	Arfgap1	SID363570523	108	70.4	inactive
55	Arfgap1	SID363579323	103	136	inactive
56	Arfgap1	SID363583195	123	107	active
57	Csrp1	SID363572315	111	84.5	inactive
58	Csrp1	SID363574075	59.6	64.3	inactive
59	Sack1g	SID363543657	68.1	59	inactive
60	Sack1g	SID363553150	87.9	93.4	inactive
61	Sack1g	SID363558998	119	86.7	inactive
62	Ccdc66	SID363539805	77.8	83.7	inactive
63	Ccdc66	SID363561106	116	103	inactive
64	Ccdc66	SID363565196	95.6	61	inactive
65	Gm14461	SID363542750	102	77.4	inactive
66	Gm14461	SID363546267	40.4	47.9	inactive
67	Gm14461	SID363548023	85.9	79	inactive
68	Or52e5	SID363554250	100	74.2	inactive
69	Or52e5	SID363567697	135	105	active
70	Or52e5	SID363585054	67.3	96.2	inactive
71	Slc25a25	SID363545732	64.6	53.8	inactive
72	Slc25a25	SID363549245	87.2	89.3	inactive
73	Slc25a25	SID363563051	94.8	62.4	inactive
74	Tubgcp2	SID363541338	96.8	77.5	inactive
75	Tubgcp2	SID363555965	67.9	75.2	inactive
76	Tubgcp2	SID363566254	88.1	80.4	inactive
77	Serpina3b	SID363556709	48.9	63.4	inactive
78	Serpina3b	SID363563613	112	78.4	inactive
79	Serpina3b	SID363587159	93.7	92.9	inactive
80	Anks1	SID363544187	93.4	83.4	inactive
81	Anks1	SID363550515	73.7	66.1	inactive
82	Anks1	SID363557064	48.1	68.7	inactive
83	Agbl3	SID363570438	68.3	62.1	inactive
84	Agbl3	SID363579238	28.8	36.7	inactive
85	Agbl3	SID363583110	60.1	59.3	inactive
